Patent US20090111733A1, “PAR-4 RELATED METHODS AND COMPOSITIONS” (President and Fellows of Harvard College, priority 2006, published 2009)
For at least one compound, name, drawing or mass did not settle the structure.

How the values were obtained:
[1] = test system: dopamine-mediated cAMP signaling; assay: cAMP accumulation in cultured primary striatal neurons from wild type and Par-4ΔLZ embryos (cAMP EIA); format: cell-based, mouse; conditions: Par-4ΔLZ neurons, co-treated with dopamine
Experimental: DIV 11-14 neurons cultured in 24 well-plates were replaced with neurobasal media supplemented with 10 mM HEPES (pH7.4) containing drugs indicated for 50 min at room temperature, cells were lysed in 200 μl of 0.1M HCl solution for 15 min with gentle shaking and spun in the microcentrifuge tubes. cAMP concentration of the supernatant was measured using the cAMP-Enzyme Immunoassay Kit (Assay Designs) following manufacture's instructions. Concentrations of cAMP were normalized using protein concentrations measured by Biorad Protein Assay System (Bio-rad).

Par-4 protein = Par-4 protein level in cultured neurons treated with valproate; format: cell-based, mouse and rat; conditions: 1 mM
Par-4 mRNA = Par-4 mRNA level by semi-quantitative RT-PCR; format: cell-based
dopamine signaling = assay: Dopamine signaling by cAMP enzyme immunoassay in cultured striatal neurons after valproate; format: cell-based

Compound	enhancement of cAMP response to dopamine [1]	induction of Par-4 protein (Par-4 protein; cortical neurons)	Par-4 protein level (Par-4 protein; cultured mouse and rat neurons)	induction of Par-4 protein (Par-4 protein; striatal neurons)	Par-4 mRNA level (Par-4 mRNA)	dopamine signaling measured by cAMP enzyme immunoassay (dopamine signaling)
CN1CCc2cc(Cl)c(O)cc2[C@@H](c2ccccc2)C1 [SCH23390]	abolished					
CCCC(CCC)C(=O)O [valproate]		less prominent induction	upregulated	less prominent induction	increase	altered
